Measured values as given in paper PMC5613952.
Results are given in words; binding and its absence hold for the method and conditions named. In cells and extracts the contact can be indirect. Some entries that bind do so weakly or less than the wild type. Sequences can lack the tags named with a protein.

By UniProt entry, the sequences of proteins in these tests, tags left out.
UniProt Q13547: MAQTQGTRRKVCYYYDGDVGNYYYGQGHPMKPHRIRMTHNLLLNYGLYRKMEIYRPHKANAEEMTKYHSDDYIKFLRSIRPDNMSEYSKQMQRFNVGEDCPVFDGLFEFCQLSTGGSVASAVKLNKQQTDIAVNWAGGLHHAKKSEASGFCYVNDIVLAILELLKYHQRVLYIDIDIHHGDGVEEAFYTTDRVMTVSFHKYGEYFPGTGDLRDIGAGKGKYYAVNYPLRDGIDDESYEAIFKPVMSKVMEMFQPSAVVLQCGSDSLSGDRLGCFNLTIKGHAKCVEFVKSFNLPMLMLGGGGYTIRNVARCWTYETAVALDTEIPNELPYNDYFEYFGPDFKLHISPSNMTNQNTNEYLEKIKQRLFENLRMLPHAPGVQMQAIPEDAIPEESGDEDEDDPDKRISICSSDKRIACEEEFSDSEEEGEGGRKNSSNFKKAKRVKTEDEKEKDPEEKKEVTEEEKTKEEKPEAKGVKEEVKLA

Biological target: T1, MTA3 with V5 tag (MTA3V5), metastasis-associated protein 3 (UniProt Q9BTC8)
T1 sequence: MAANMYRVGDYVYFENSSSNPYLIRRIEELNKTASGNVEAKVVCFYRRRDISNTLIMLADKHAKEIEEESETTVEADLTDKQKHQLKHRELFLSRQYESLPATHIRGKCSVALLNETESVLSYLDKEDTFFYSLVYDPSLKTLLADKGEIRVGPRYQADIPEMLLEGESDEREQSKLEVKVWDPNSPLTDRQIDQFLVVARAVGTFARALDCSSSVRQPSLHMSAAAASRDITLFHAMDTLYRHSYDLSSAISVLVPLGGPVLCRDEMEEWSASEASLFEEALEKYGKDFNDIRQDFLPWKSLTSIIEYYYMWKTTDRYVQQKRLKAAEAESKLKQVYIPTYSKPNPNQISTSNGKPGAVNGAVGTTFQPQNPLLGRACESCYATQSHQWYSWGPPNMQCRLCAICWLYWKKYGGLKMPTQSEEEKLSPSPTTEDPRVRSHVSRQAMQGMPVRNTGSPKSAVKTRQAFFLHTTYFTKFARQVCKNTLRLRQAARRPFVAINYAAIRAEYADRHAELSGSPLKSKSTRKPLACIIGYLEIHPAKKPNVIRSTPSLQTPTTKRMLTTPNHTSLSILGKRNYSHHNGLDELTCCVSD
Test: co-IP; lysate (NETN buffer) of HTR8/SVneo cells overexpressing MTA3V5; 1 mg whole protein precipitated with MTA3 rabbit antibody or V5 antibody against non-specific IgG, magnetic Dynabeads; HDAC1 detected by Western blot

binding: binds
Substance: histone deacetylase 1 (HDAC1) (from UniProt Q13547 1-482)
